For experiment [1], the target named is T1, FILIP d872-1111 (3 x FLAG tagged) (rat) (UniProt Q8K4T4).
T1 sequence: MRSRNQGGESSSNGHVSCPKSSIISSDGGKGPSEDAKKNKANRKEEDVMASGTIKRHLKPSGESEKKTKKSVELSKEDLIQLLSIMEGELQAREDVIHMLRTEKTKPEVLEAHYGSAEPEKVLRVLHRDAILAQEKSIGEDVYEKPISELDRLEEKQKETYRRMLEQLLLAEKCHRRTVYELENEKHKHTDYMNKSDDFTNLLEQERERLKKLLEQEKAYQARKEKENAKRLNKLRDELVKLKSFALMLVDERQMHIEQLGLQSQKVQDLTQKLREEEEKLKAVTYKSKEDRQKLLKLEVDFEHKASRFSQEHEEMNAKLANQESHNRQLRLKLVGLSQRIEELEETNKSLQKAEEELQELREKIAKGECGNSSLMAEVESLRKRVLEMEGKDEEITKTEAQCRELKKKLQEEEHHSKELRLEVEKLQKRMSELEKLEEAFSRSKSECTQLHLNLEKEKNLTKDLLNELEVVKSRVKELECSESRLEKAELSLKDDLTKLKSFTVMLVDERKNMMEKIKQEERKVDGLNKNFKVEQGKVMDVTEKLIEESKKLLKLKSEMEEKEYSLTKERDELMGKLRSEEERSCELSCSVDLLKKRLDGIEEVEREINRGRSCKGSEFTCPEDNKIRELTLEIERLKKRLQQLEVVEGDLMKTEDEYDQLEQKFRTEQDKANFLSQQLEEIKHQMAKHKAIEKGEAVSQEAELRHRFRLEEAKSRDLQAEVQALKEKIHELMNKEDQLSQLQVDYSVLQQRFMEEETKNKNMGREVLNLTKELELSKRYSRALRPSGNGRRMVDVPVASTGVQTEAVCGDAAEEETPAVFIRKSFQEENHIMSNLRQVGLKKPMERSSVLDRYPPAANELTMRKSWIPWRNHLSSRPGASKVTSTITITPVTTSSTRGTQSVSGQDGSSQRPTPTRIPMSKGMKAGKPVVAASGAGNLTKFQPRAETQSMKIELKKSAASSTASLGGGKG
The experiment is described as follows: co-IP; COS-7 cells transfected with FLAG-tagged FILIP or deletion mutants; immunoprecipitation with anti-FLAG M2 on Protein G Dynabeads, 4°C, 3 hours; blots with anti-Hsc70 or anti-NMHCIIb; in Fig 4E also with expression of Hsc70 or Hsc70 K71M.

Experiment [2] concerns the target T2, 3 x FLAG tagged full-length FILIP (rat L-FILIP) (rat) (UniProt Q8K4T4).
T2 sequence: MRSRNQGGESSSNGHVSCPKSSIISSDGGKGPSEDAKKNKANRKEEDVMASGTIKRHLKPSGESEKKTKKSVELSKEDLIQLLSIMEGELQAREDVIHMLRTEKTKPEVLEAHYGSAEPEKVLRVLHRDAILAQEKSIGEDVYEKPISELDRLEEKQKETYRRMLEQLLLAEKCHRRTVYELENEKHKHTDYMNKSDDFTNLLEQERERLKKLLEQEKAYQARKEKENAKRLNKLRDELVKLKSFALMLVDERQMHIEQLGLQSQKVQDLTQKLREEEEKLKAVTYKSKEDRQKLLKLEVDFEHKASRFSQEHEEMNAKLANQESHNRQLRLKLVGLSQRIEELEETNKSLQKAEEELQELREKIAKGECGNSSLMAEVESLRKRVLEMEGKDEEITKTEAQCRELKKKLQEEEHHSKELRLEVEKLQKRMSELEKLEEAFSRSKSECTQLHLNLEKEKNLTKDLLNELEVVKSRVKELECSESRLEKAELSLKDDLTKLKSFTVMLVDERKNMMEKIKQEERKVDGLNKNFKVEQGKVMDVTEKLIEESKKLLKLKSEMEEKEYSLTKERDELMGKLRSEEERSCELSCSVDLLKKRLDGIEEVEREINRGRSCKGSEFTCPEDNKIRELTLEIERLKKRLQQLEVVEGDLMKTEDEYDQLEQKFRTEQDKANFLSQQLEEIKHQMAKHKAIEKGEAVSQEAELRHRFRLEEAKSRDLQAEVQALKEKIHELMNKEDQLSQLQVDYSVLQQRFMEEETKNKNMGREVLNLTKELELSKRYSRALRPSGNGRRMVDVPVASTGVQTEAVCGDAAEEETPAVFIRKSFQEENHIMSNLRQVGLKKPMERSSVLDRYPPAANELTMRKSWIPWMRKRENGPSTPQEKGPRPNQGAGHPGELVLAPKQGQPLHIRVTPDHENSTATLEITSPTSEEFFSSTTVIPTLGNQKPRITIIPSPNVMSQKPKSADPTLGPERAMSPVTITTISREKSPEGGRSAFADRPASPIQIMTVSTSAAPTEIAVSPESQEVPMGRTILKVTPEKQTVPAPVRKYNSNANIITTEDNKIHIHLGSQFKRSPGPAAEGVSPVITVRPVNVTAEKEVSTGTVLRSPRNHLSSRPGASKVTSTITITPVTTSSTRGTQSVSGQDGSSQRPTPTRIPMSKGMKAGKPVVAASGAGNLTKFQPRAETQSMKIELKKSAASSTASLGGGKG
The description is as above.

Experiment [3] concerns the target Hsc70 (endogenous, COS-7 cells) (African green monkey (endogenous in COS-7)). The experiment is described as follows: co-IP; COS-7 cells transfected with FLAG tagged FILIP; immunoprecipitation with an anti-Hsc70 antibody.

This passage reports binding results from article PMC5325215.

No constants are given. Whether binding was seen depends on the method and setting. In cells and extracts the contact can be indirect. For part of these data: A result given as binding can be weak or reduced; the word gives no strength. Where a sequence is shown, tags or fusion partners need not be part of it.

For Hsc70 (endogenous, COS-7 cells), the binding result was “no binding” in experiment [1] and “binds” in experiment [2].

B1: 3 x FLAG tagged full-length FILIP (rat L-FILIP) (protein, UniProt Q8K4T4-1 1-1212)
chain: MRSRNQGGESSSNGHVSCPKSSIISSDGGKGPSEDAKKNKANRKEEDVMASGTIKRHLKPSGESEKKTKKSVELSKEDLIQLLSIMEGELQAREDVIHMLRTEKTKPEVLEAHYGSAEPEKVLRVLHRDAILAQEKSIGEDVYEKPISELDRLEEKQKETYRRMLEQLLLAEKCHRRTVYELENEKHKHTDYMNKSDDFTNLLEQERERLKKLLEQEKAYQARKEKENAKRLNKLRDELVKLKSFALMLVDERQMHIEQLGLQSQKVQDLTQKLREEEEKLKAVTYKSKEDRQKLLKLEVDFEHKASRFSQEHEEMNAKLANQESHNRQLRLKLVGLSQRIEELEETNKSLQKAEEELQELREKIAKGECGNSSLMAEVESLRKRVLEMEGKDEEITKTEAQCRELKKKLQEEEHHSKELRLEVEKLQKRMSELEKLEEAFSRSKSECTQLHLNLEKEKNLTKDLLNELEVVKSRVKELECSESRLEKAELSLKDDLTKLKSFTVMLVDERKNMMEKIKQEERKVDGLNKNFKVEQGKVMDVTEKLIEESKKLLKLKSEMEEKEYSLTKERDELMGKLRSEEERSCELSCSVDLLKKRLDGIEEVEREINRGRSCKGSEFTCPEDNKIRELTLEIERLKKRLQQLEVVEGDLMKTEDEYDQLEQKFRTEQDKANFLSQQLEEIKHQMAKHKAIEKGEAVSQEAELRHRFRLEEAKSRDLQAEVQALKEKIHELMNKEDQLSQLQVDYSVLQQRFMEEETKNKNMGREVLNLTKELELSKRYSRALRPSGNGRRMVDVPVASTGVQTEAVCGDAAEEETPAVFIRKSFQEENHIMSNLRQVGLKKPMERSSVLDRYPPAANELTMRKSWIPWMRKRENGPSTPQEKGPRPNQGAGHPGELVLAPKQGQPLHIRVTPDHENSTATLEITSPTSEEFFSSTTVIPTLGNQKPRITIIPSPNVMSQKPKSADPTLGPERAMSPVTITTISREKSPEGGRSAFADRPASPIQIMTVSTSAAPTEIAVSPESQEVPMGRTILKVTPEKQTVPAPVRKYNSNANIITTEDNKIHIHLGSQFKRSPGPAAEGVSPVITVRPVNVTAEKEVSTGTVLRSPRNHLSSRPGASKVTSTITITPVTTSSTRGTQSVSGQDGSSQRPTPTRIPMSKGMKAGKPVVAASGAGNLTKFQPRAETQSMKIELKKSAASSTASLGGGKG
B1: the binding result in experiment [3] is “binds”.
